Test results from US11666586B2, “Compositions and methods for treating acne vulgaris” (Dermala, Inc., priority 2016, dated 2023).
Entries after “also recorded” stand apart in the source; their conditions may differ. For at least one compound, name, drawing or mass did not settle the structure.

Tested on: P. acnes strains RMA#20660 and RMA#20661
Test: MIC against multi-resistant P. acnes strains
Type: cell-based, Propionibacterium acnes
Method: Individual MIC values were determined for each drug according to the microbroth dilution method. Briefly, 2-fold serial dilutions of each drug (50 μl) were added to wells in a 96-well plate followed by 50 μl of the prepared P. acnes inoculum as described in Example 1. Media without P. acnes and medium with P. acnes only were used for negative and positive controls, respectively, and contained the highest concentration of solvent used in each drug analysis. Plates were incubated under anaerobic conditions using a Gas-Pak (BD) for 48 hours at 37° C. Following incubation, each well was resuspended by pipetting and the optical density at 600 nm (OD600) was determined on a plate reader.

In the case of `CCC[C@@H]1C[C@@H](C(=O)N[C@@H]([C@H]2O[C@H](SC)[C@H](O)[C@@H](O)[C@H]2O)[C@H](C)Cl)N(C)C1` [Clindamycin, clindamycin, reference compound], the “inhibition of antibiotic-resistant P. acnes strains” value is reported as “no ability to inhibit; also recorded: resistant”.
